Results are given in words; binding and its absence hold for the method and conditions named. In cells and extracts the contact can be indirect. Some binding calls cover weakened binding; strength is not graded here. For part of these data: Sequences can lack the tags named with a protein.
Tests used:
[1] = target: T1, ZEB1 transcription factor, endogenous (human (endogenous in A549)) (UniProt P37275); assay: co-IP; A549 cell extracts in 1% NP-40 lysis buffer (20 mM Tris-HCl pH 7.4, 150 mM NaCl, 10% glycerol); endogenous proteins immunoprecipitated with anti-TLE1, anti-ZEB1 or non-specific IgG, blotted with anti-TLE1 or anti-ZEB1
T1 sequence: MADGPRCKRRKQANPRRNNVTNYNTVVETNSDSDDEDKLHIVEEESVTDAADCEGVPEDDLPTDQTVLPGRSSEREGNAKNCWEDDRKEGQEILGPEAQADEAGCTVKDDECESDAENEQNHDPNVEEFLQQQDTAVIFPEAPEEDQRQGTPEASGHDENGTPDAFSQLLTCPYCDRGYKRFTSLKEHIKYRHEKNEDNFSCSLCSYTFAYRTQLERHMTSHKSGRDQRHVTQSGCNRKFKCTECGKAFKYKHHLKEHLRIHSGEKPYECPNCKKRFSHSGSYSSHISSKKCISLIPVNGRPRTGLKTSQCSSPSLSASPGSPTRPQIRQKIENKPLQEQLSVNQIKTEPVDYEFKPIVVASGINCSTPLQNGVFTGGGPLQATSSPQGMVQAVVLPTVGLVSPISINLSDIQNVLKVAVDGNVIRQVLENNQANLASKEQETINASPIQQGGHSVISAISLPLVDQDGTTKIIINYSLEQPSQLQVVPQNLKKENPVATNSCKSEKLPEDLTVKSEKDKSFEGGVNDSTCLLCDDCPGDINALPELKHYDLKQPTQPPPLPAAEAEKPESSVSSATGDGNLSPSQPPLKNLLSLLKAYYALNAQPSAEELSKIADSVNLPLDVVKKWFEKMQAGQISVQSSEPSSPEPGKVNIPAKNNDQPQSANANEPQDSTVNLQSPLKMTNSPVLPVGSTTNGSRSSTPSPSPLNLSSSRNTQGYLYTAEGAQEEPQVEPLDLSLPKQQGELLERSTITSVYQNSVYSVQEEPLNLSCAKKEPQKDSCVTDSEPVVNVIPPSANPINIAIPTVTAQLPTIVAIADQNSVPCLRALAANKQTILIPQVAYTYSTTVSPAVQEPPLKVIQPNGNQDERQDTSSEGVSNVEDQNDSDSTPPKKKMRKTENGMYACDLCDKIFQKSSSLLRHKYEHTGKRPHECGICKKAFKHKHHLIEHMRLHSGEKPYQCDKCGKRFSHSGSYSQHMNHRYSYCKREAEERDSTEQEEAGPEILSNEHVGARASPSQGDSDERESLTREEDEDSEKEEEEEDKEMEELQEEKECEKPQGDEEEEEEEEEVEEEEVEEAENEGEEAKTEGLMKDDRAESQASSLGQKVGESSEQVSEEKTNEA

Protein sequences, listed by entry. Tags and fused reporters are not part of them.
UniProt Q04724: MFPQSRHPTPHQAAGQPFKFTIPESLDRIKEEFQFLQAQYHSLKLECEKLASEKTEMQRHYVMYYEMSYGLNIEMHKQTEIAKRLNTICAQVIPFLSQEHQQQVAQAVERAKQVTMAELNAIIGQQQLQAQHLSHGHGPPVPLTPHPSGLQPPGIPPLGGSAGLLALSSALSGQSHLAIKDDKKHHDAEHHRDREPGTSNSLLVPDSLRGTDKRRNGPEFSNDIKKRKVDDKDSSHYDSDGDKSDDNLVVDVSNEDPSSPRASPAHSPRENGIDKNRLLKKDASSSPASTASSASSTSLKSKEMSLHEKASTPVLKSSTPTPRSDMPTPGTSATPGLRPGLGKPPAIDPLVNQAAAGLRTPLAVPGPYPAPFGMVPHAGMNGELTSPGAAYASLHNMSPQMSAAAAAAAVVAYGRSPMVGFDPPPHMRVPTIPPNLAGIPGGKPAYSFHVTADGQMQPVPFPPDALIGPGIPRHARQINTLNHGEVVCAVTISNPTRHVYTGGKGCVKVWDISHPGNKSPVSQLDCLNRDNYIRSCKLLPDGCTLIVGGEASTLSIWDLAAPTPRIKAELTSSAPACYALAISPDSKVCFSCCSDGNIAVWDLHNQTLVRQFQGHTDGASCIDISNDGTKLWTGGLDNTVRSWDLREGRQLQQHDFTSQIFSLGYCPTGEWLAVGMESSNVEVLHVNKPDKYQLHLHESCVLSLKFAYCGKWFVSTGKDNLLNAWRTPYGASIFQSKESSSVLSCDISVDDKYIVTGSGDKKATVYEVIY

[2] = target: Transducin-like enhancer of split 1 (TLE1), endogenous (human (endogenous in A549)) (UniProt Q04724); assay: as above
GFP-TLE1 = GFP-TLE1 (UniProt Q04724); assay: co-IP; Control GFP and GFP-TLE1 A549 cells transfected with Myc-ZEB1 or empty vector; NP-40 lysate; GFP-TLE1 immunoprecipitated with anti-GFP-agarose, blotted with anti-Myc

Transducin-like enhancer of split 1 (TLE1), endogenous (from UniProt Q04724 1-770)
binding [1]: binds

B1: ZEB1 transcription factor, endogenous (protein, UniProt P37275 1-1124)
chain: MADGPRCKRRKQANPRRNNVTNYNTVVETNSDSDDEDKLHIVEEESVTDAADCEGVPEDDLPTDQTVLPGRSSEREGNAKNCWEDDRKEGQEILGPEAQADEAGCTVKDDECESDAENEQNHDPNVEEFLQQQDTAVIFPEAPEEDQRQGTPEASGHDENGTPDAFSQLLTCPYCDRGYKRFTSLKEHIKYRHEKNEDNFSCSLCSYTFAYRTQLERHMTSHKSGRDQRHVTQSGCNRKFKCTECGKAFKYKHHLKEHLRIHSGEKPYECPNCKKRFSHSGSYSSHISSKKCISLIPVNGRPRTGLKTSQCSSPSLSASPGSPTRPQIRQKIENKPLQEQLSVNQIKTEPVDYEFKPIVVASGINCSTPLQNGVFTGGGPLQATSSPQGMVQAVVLPTVGLVSPISINLSDIQNVLKVAVDGNVIRQVLENNQANLASKEQETINASPIQQGGHSVISAISLPLVDQDGTTKIIINYSLEQPSQLQVVPQNLKKENPVATNSCKSEKLPEDLTVKSEKDKSFEGGVNDSTCLLCDDCPGDINALPELKHYDLKQPTQPPPLPAAEAEKPESSVSSATGDGNLSPSQPPLKNLLSLLKAYYALNAQPSAEELSKIADSVNLPLDVVKKWFEKMQAGQISVQSSEPSSPEPGKVNIPAKNNDQPQSANANEPQDSTVNLQSPLKMTNSPVLPVGSTTNGSRSSTPSPSPLNLSSSRNTQGYLYTAEGAQEEPQVEPLDLSLPKQQGELLERSTITSVYQNSVYSVQEEPLNLSCAKKEPQKDSCVTDSEPVVNVIPPSANPINIAIPTVTAQLPTIVAIADQNSVPCLRALAANKQTILIPQVAYTYSTTVSPAVQEPPLKVIQPNGNQDERQDTSSEGVSNVEDQNDSDSTPPKKKMRKTENGMYACDLCDKIFQKSSSLLRHKYEHTGKRPHECGICKKAFKHKHHLIEHMRLHSGEKPYQCDKCGKRFSHSGSYSQHMNHRYSYCKREAEERDSTEQEEAGPEILSNEHVGARASPSQGDSDERESLTREEDEDSEKEEEEEDKEMEELQEEKECEKPQGDEEEEEEEEEVEEEEVEEAENEGEEAKTEGLMKDDRAESQASSLGQKVGESSEQVSEEKTNEA
binding [2]: binds

B2: Myc-tagged ZEB1 (protein, UniProt P37275 1-1124)
chain: MADGPRCKRRKQANPRRNNVTNYNTVVETNSDSDDEDKLHIVEEESVTDAADCEGVPEDDLPTDQTVLPGRSSEREGNAKNCWEDDRKEGQEILGPEAQADEAGCTVKDDECESDAENEQNHDPNVEEFLQQQDTAVIFPEAPEEDQRQGTPEASGHDENGTPDAFSQLLTCPYCDRGYKRFTSLKEHIKYRHEKNEDNFSCSLCSYTFAYRTQLERHMTSHKSGRDQRHVTQSGCNRKFKCTECGKAFKYKHHLKEHLRIHSGEKPYECPNCKKRFSHSGSYSSHISSKKCISLIPVNGRPRTGLKTSQCSSPSLSASPGSPTRPQIRQKIENKPLQEQLSVNQIKTEPVDYEFKPIVVASGINCSTPLQNGVFTGGGPLQATSSPQGMVQAVVLPTVGLVSPISINLSDIQNVLKVAVDGNVIRQVLENNQANLASKEQETINASPIQQGGHSVISAISLPLVDQDGTTKIIINYSLEQPSQLQVVPQNLKKENPVATNSCKSEKLPEDLTVKSEKDKSFEGGVNDSTCLLCDDCPGDINALPELKHYDLKQPTQPPPLPAAEAEKPESSVSSATGDGNLSPSQPPLKNLLSLLKAYYALNAQPSAEELSKIADSVNLPLDVVKKWFEKMQAGQISVQSSEPSSPEPGKVNIPAKNNDQPQSANANEPQDSTVNLQSPLKMTNSPVLPVGSTTNGSRSSTPSPSPLNLSSSRNTQGYLYTAEGAQEEPQVEPLDLSLPKQQGELLERSTITSVYQNSVYSVQEEPLNLSCAKKEPQKDSCVTDSEPVVNVIPPSANPINIAIPTVTAQLPTIVAIADQNSVPCLRALAANKQTILIPQVAYTYSTTVSPAVQEPPLKVIQPNGNQDERQDTSSEGVSNVEDQNDSDSTPPKKKMRKTENGMYACDLCDKIFQKSSSLLRHKYEHTGKRPHECGICKKAFKHKHHLIEHMRLHSGEKPYQCDKCGKRFSHSGSYSQHMNHRYSYCKREAEERDSTEQEEAGPEILSNEHVGARASPSQGDSDERESLTREEDEDSEKEEEEEDKEMEELQEEKECEKPQGDEEEEEEEEEVEEEEVEEAENEGEEAKTEGLMKDDRAESQASSLGQKVGESSEQVSEEKTNEA
binding (GFP-TLE1): binds

Source: article PMC5641126
